Measured values published in publication PMC3526283.
Construct, isoform or probe ends are uncertain for at least one entry. The comparison behind a weaker result is the experiment's own reference, which may not be listed here.

What was measured:
[1] = molecular target: DNA polymerase beta (Polβ) (Homo sapiens) (UniProt P06746); assay: EMSA; details: 100 nM protein; EMSA: 50 mM Tris-HCl pH 7.5, 0.1 mg/ml BSA, 1 mM DTT, 4% glycerol, 5 nM DNA, 10 min at 30°C; recombinant protein; label: 32P at 5' end of Sp1C
[2] = molecular target: DNA polymerase mu (Polµ) (Homo sapiens) (UniProt Q9NP87); assay: DNase I footprinting; details: 100 µM dTTP, 2.5 mM MgCl2, hardly visible; footprinting: same buffer, 30 nM DNA, 37°C (2.5 mM MgCl2 and 100 µM dNTP where stated); recombinant protein; label: 32P at 5' end of FP-T
[3] = molecular target: DNA polymerase beta (Polβ) (Homo sapiens) (UniProt P06746); assay: DNase I footprinting; details: 100 µM dTTP, 2.5 mM MgCl2, hardly visible; footprinting: same buffer, 30 nM DNA, 37°C (2.5 mM MgCl2 and 100 µM dNTP where stated); recombinant protein; label: 32P at 5' end of FP-T

| Sequence | binding result [1] | binding result [2] | binding result [3] |
| --- | --- | --- | --- |
| AGAAGTGTATCTCGTACTCACTGTGATC / GATCACAGTGAGTAC / AGATACACTTCT [1-nt gap Sp1C/T28/D12, 5'-OH] | binds more weakly |  |  |
| GGCAGCTTGGATCTTGTCGAAAAACGTCAACATTCGCCTAGGCTTCGGCAATACTGAGGTCTTGTCGAAAAACGTCAACATTGCGTGGCC / GGCCACGCAATGTTGACGTTTTTCGACAAGACCTCAGTAT / GCCGAAGCCTAGGCGAATGTTGACGTTTTTCGACAAGATCCAAGCTGCC [footprint 1-nt gap FP-T/FP-P/FP-D, 5'-OH] |  | binds more weakly | binds more weakly |
